Data taken from patent US20060110388A1.
Numbering of substitutions follows the chain as printed. These are yes or no findings as the source states them, for the method shown. Some binding calls cover weakened binding; strength is not graded here.

Amino acid sequences for entries named in this document (tags omitted). Residues count along the entry.
UniProt P05067, residues 672-711: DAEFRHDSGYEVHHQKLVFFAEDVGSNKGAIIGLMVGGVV

B1: A7 Fab (Fab, V domains shown)
VH: EVQLLESGGGLVQPGGSLRLSCAASGFTFSRYSMSWVRQAPGKGLEWVSQISSVGNSTYYPDTVKGRFTISRDNSKNTLYLQMNSLRSEDTAVYYCAKGPYWGQGTLVTVSS
VL: DVVMTQSPLSLPVTLGQPASISCRSSQSLIYSDGNAYLHWFQQRPGQSPRRLIYKVSNRFSGVPDRFSGSGSGTDFTLKISRVEAEDVGVYYCSQSTHVPWAFGGGTKVEIK
B2: 1D4 Fab (Fab, V domains shown)
VH: EVQLVESGGGLVKPGGSLRLSCAASGFTFSRYSMSWVRQAPGKGLEWVGQINSQGNSTYYPDTVKGRFTISRDDSKNTLYLQMNSLKTEDTAVYYCTTGDRWGQGTLVTVSS
VL: DIVMTQTPLSLSVTPGQPASISCRSSQSLIYSDGNAYLHWYLQKPGQSPQLLIYKVSNRFSGVPDRFSGSGSGTDFTLKISRVEAEDVGVYYCSQSTHSPWTFGGGTKVEIK
B3: 3D12 Fab (Fab, V domains shown)
VH: B2 VH with Q54P, R101F
VL: B2 VL with S99A
B4: 3F9 Fab (Fab, V domains shown)
VH: B2 VH with Q54R, R101V
VL: B2 VL
B5: 2B2 Fab (Fab, V domains shown)
VH: B2 VH with S53I, Q54R, R101F
VL: B2 VL
B6: 1A2 Fab (Fab, V domains shown)
VH: B2 VH with Q54R, S57H, R101F
VL: B2 VL
B7: 1B1 Fab (Fab, V domains shown)
VH: B2 VH with Q54R, S57N, R101F
VL: B2 VL
B8: 2A11 Fab (Fab, V domains shown)
VH: B2 VH with Q54R, S57R, R101F
VL: B2 VL
B9: 6F9 Fab (Fab, V domains shown)
VH: B2 VH with Q54R, T63P, R101F
VL: B2 VL
B10: 3H1 Fab (Fab, V domains shown)
VH: B2 VH with Q54V, T63K, R101F
VL: B2 VL
B11: 1B7 Fab (Fab, V domains shown)
VH: B2 VH with Q54R, R101F
VL: B2 VL
B12: 3H2 Fab (Fab, V domains shown)
VH: B2 VH with Q54V, T63A, R101F
VL: B2 VL
B13: 6H8 Fab (Fab, V domains shown)
VH: B2 VH with Q54V, T63E, R101F
VL: B2 VL
B14: 6F6 Fab (Fab, V domains shown)
VH: B2 VH with Q54V, K65T, R101F
VL: B2 VL
B15: 7E1 Fab (Fab, V domains shown)
VH: B2 VH with Q54R, R101F
VL: B2 VL with R24S
B16: 4D1 Fab (Fab, V domains shown)
VH: B2 VH with Q54R, R101F
VL: B2 VL with R24L
B17: 4D6 Fab (Fab, V domains shown)
VH: B2 VH with Q54R, R101F
VL: B2 VL with S26N
B18: 4D9 Fab (Fab, V domains shown)
VH: B2 VH with Q54R, R101F
VL: B2 VL with Q27I
B19: 4F12 Fab (Fab, V domains shown)
VH: B2 VH with Q54R, R101F
VL: B2 VL with Q27K
B20: 6D4 Fab (Fab, V domains shown)
VH: B2 VH with Q54R, R101F
VL: B2 VL with S32W
B21: 6D3 Fab (Fab, V domains shown)
VH: B2 VH with Q54R, R101F
VL: B2 VL with N35I
B22: 6E11 Fab (Fab, V domains shown)
VH: B2 VH with Q54R, R101F
VL: B2 VL with N35S
B23: 6D7 Fab (Fab, V domains shown)
VH: B2 VH with Q54R, R101F
VL: B2 VL with S32L
B24: 3E2 Fab (Fab, V domains shown)
VH: B2 VH with Q54R, R101F
VL: B2 VL with A36N
B25: 3E10 Fab (Fab, V domains shown)
VH: B2 VH with Q54R, R101F
VL: B2 VL with A36H
B26: 5C8 Fab (Fab, V domains shown)
VH: B2 VH with Q54R, R101F
VL: B2 VL with S61W
B27: 5A11 Fab (Fab, V domains shown)
VH: B2 VH with Q54R, R101F
VL: B2 VL with F60R
B28: 5D1 Fab (Fab, V domains shown)
VH: B2 VH with Q54R, R101F
VL: B2 VL with S57Y
B29: 3D5 Fab (Fab, V domains shown)
VH: B2 VH with Q54T, R101F
VL: B2 VL
B30: 5B10 Fab (Fab, V domains shown)
VH: B2 VH with Q54R, R101F
VL: B2 VL with K55R
B31: 6C3 Fab (Fab, V domains shown)
VH: B2 VH with Q54R, R101F
VL: B2 VL with S94T
B32: 1E8 Fab (Fab, V domains shown)
VH: B2 VH with Q54R, R101F
VL: B2 VL with T102S
B33: 1A1 Fab (Fab, V domains shown)
VH: B2 VH with F27Y, S53I, Q54R, S57N, R101F
VL: B2 VL with R24S, S94T
B34: 1A12 Fab (Fab, V domains shown)
VH: B2 VH with S53I, Q54R, S57N, R101F
VL: B2 VL
B35: D3 Fab (Fab, V domains shown)
VH: B2 VH with Q54I, R101W
VL: B2 VL
B36: 1C5 Fab (Fab, V domains shown)
VH: B2 VH with Q54V, G55A, R101F
VL: B2 VL
B37: A3 Fab (Fab, V domains shown)
VH: B2 VH with Q54S, R101F
VL: B2 VL with S99T
B38: A4 Fab (Fab, V domains shown)
VH: B2 VH with Q54P, R101S
VL: B2 VL

biological target: amyloid beta peptide (Aβ), form not stated (UniProt P05067); test: screening: capture filter lift assay and capture ELISA

binding, binds:
B1
B2
B3
B4
B5
B6
B7
B8
B9
B10
B11
B12
B13
B14
B15
B16
B17
B18
B19
B20
B21
B22
B23
B24
B25
B26
B27
B28
B29
B30
B31
B32
B33
B34
B35
B36
B37
B38
